{
  "source": "PubChem BioAssay (NCATS)",
  "note": "Inconclusive means that the source gave no clear call. Such entries were picked first, then a sample of the others. Potencies beside an inconclusive call are fits to weak or partial responses and may not hold up. Calls of active or inactive are those of the source. The call rests on the fitted dose curve; in most records, active means well fitted inhibition curve with a large enough effect; inconclusive means small, poorly fitted or top-dose-only effect, or effect the other way; inactive means no such curve, though single readings can be large or run the other way. On the % scale 0 is the no-effect control and ±100 the full control effect; potency means the concentration at half of the fitted maximal effect.",
  "data": [
    {"experiment": "qHTS Assay for Inhibitors of Fructose-1,6-bisphosphate Aldolase from Giardia Lamblia: Giardia lamblia growth inhibition (AID 2785); further: nearly all actives have a fitted effect of over 70% in size", "conditions": "Giardia lamblia trophozoite growth inhibition; activity change, negative = inhibition: at 57.5 µM (top of the series)", "in_short": "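Whole-parasite growth test: Giardia WB trophozoites in TYI-S-33 (pH 7.0), 100 per well, incubated 48 h at 37C with compound. ATP content was read by ATPlite luminescence.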", "values": [
      {"compound": "Cn1cnc([N+](=O)[O-])c1Sc1ncccc1N", "activity change, negative = inhibition": "inactive: 26.7%"},
      {"compound": "O=C(NC(=S)Nc1ccccc1[N+](=O)[O-])c1ccco1", "Potency": "active: 35.5 µM"},
      {"compound": "Fc1ccccc1CN1CCN(c2ncccn2)CC1", "activity change, negative = inhibition": "inactive: 25.1%"},
      {"compound": "Cc1ccc(NC(=O)CSc2nc3nc(C)c(Br)cc3[nH]2)cc1F", "Potency": "inconclusive: 70.8 µM [inhibitor, single point]"},
      {"compound": "Cc1cc(C)c(NC(=S)NCCCSC2CCCCC2)c(C)c1", "Potency": "inconclusive: 28.2 µM [inhibitor, partial curve, poor fit]"}
    ]}
  ]
}
